## Library screen at single concentrations

Mtb cholesterol medium: 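Phenotypic screen: M. tuberculosis growth, cholesterol and DPPC medium, 4 days; the read-out is not stated. Compounds at 50 µM. Direction is inferred from retests: higher values go with more growth inhibition. Size under these conditions: about 69,000 compounds, about 370 of them at 50% or above in at least one test.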
Mtb glucose medium: 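Growth of Mycobacterium tuberculosis over 3 days (7H9 medium with glucose and tyloxapol); the read-out is not stated. Tested at 50 µM. Direction is inferred from retests: higher values go with more growth inhibition. Of about 69,000 compounds tested this way, about 760 (1.1%) reached 50% or more in at least one test.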

Each number is a percent effect as filed. The controls that fix the scale are not given in the record; negative values are as filed. Compounds were drawn at random from those tested, without regard to their results. Two or more numbers in one place are separate tests of the same structure; such repeats can differ widely. A dash means the value is not listed here; it may have been measured.

| compound | Mtb cholesterol medium | Mtb glucose medium |
|---|---|---|
| `CCCc1nnc(N2CCN(c3ccccc3OCC)CC2)o1` | 26.09% and 30.01% | 49.97% |
| `Fc1cnc(N2CCCn3c(CN4CCOCC4)nnc3C2)nc1.O=C(O)C(F)(F)F.O=C(O)C(F)(F)F` | -7.886% | -15.51% |
| `Cn1ncc2c(NC3CCCN(C(=O)C4CC4)C3)nc(C(C)(C)C)nc21` (stereo not given) | -21.64% | -32.64% |
| `Cc1cn(CC(=O)NC2CCN(CC3CC3)CC2)c2ccccc12` | -10.17% | 19.88% |
| `N#Cc1ccccc1CN(CCO)Cc1ccsc1` | 12.01% | 14.72% |
| `O=C(c1cccc(F)c1)N1CCc2ncc(Cn3cccn3)n2CC1` | -17.53% | -28.62% |
| `CC(CCSc1ccccc1)N1CCCN(C(N)=O)CC1` (stereo not given) | -20% | -27.98% |
| `Cc1nc(CC(=O)N2CCCC2Cn2cccn2)cs1` (stereo not given) | 2.782% | 10.23% |
| `CN(C)c1ccc(CC(=O)N2C[C@H](C3CC3)[C@@H](N)C2)cc1` | -11.08% | -2.606% and 12.36% |
| `CC(C)n1cnnc1CN(C)C(=O)c1cc(COc2ccccc2)[nH]n1` | 4.406% | 2.013% and 7.323% |
| `Cc1nc(C)n(CC2CN(CCn3cccn3)CCO2)n1` (stereo not given) | -1.835% and 3.206% | 1.552% |
| `NC(=O)[C@@H]1CCCN1C(=O)c1csc(-c2ccc(C(F)(F)F)cc2)n1` | -28.38% | 11.2% |
| `COc1cccc(CC2(CO)CCCN(c3nccs3)C2)c1` (stereo not given) | 7.938% | 30.53% |
| `CCCc1nc(N2CCCCCC2)c2c(n1)c(C)nn2CC` | 9.137% | 24.41% and 68.07% |
| `O=C(c1cn2cc(Cl)cnc2n1)N1CCOCC(O)(CN2CCCC2)C1` (stereo not given) | -5.193% | 13.41% |
| `Cc1cnccc1NCCn1ccnc1C1CCOC1` (stereo not given) | 6.09% | 19.69% |
| `CCOC1CCN(C(=O)c2ccc(-c3cccc(C)c3)[nH]c2=O)CC1` | -1.098% | -2.722% and -18.73% |
| `CC(=O)Nc1ccc2nc(-c3nccn3CCCN(C)C)ccc2c1` | 3.607% | -12.89% |
| `O=C(NCCO)NC(c1ccccc1)c1ccc2c(c1)CCCO2` (stereo not given) | -11.23% | 17.97% and 4.945% |
| `C[C@H](NC(=O)N1CCN(c2ccc(Cl)cc2)CC1)C(=O)N1CCSCC1` | -7.398% | 5.982% |
| `[H][C@]12CC[C@@]3(N=C(C)N(C)C3=O)[C@@]1([H])CN(C(=O)NCC(C)C)C2` | -15.36% | -15.44% and -2.249% |
| `c1cnc2c(CN3CCCCC3c3ccncn3)cnn2c1` (stereo not given) | 14.52% | 35.76% |
| `O=C(NS(=O)(=O)c1ccc2c(c1)OCCO2)c1ccc(Br)cc1F` | -8.484% | -42.06% |
| `CC(C)c1n[nH]c(C2CN(C(=O)c3cc4c(s3)CCC4)CCO2)n1` (stereo not given) | -4.251% | 11.49% |
| `Cc1cnc(C)c(N2CCC(c3nccn3Cc3cscn3)CC2)n1` | -18.09% and 2.692% | -35.01% |
| `Cc1ncc(CNC(=O)N(CCCO)C2CCc3ccccc32)s1` (stereo not given) | -4.22% | 12.03% |
| `CN1CCC(N(C)C(=O)c2cnn(-c3ccccc3Br)c2N)CC1` | -5.733% | -0.1832% |
| `CC(O)(CNC(=O)NCc1cccc(-n2cncn2)c1)c1ccco1` (stereo not given) | -13.49% | -14.79% and -3.807% |
| `O=C(c1cccn1Cc1cccs1)N1CCN(C2CC2)CC1` | -5.302% | 11.61% |
| `CCOC(=O)CC1CCCCN1C(=O)c1cc(C)oc1C` (stereo not given) | -25.29% | -44.18% |
| `O=C(O)C(F)(F)F.[H][C@@]12C[C@H](C(=O)N3CCCO3)CN(Cc3ccoc3)[C@]1([H])CCO2` | -21.29% | 10.89% |
| `COc1ccc(-c2n[nH]c(C)c2CC(=O)N2CCOCC2)cc1` | 1.923% | 9.426% |
| `COc1cccc(CN2CCCC2c2cccc(F)c2)c1OC` (stereo not given) | -0.7623% | -2.553% |
| `CC(c1ccccc1)N1Cc2nc(N(C)C)ncc2C1=O` (stereo not given) | -40.22% | - |
| `[H][C@@]12CCN(Cc3ccoc3)C[C@]1([H])OCCN(c1cccnc1)C2=O` | -11.67% | -4.965% |
| `Cc1cc(CN2CCN(CC(O)c3ccccc3)CC2)no1` (stereo not given) | -2.218% | 2.007% |
| `CCN(C1CCN(Cc2ncc(C(C)(C)C)o2)CC1)S(C)(=O)=O` | 4.13% | 3.903% |
| `O=C(NCc1ccco1)Nc1cccc(S(=O)(=O)C(F)F)c1` | 2.751% | 2.705% |
| `[H][C@@]12CS(=O)(=O)C[C@]1([H])N(Cc1ncc[nH]1)CCN2Cc1cccnc1` | -18.66% | -24.2% |
| `CC(C)n1ncc2c1NC(=O)CC21C(=O)Nc2c(Cl)cc(Br)cc21` (stereo not given) | -29.8% | 18.43% |
| `CC(c1cc(F)ccc1F)N1CCN(C(=O)c2ccc(=O)[nH]c2)CC1` (stereo not given) | 1.048% | -12.69% and -9.849% |
| `[H][C@]12CC[C@@]3(N=C(CC)N(CC4CC4)C3=O)[C@@]1([H])CN(C(=O)NCC(C)C)C2` | 5.879% | 14.58% and -4.331% |
| `Cc1nn(C)cc1C(=O)N1CCCC(n2nnc3cc(F)ccc32)C1` (stereo not given) | 2.584% | -3.462% |
| `O=C(NCCNc1ccc(C(F)(F)F)cn1)c1ccc(Br)cc1F` | 36.14% | 29.4% |

5 of the entries, repeated:

compound	Mtb cholesterol medium	Mtb glucose medium
CCCc1nnc(N2CCN(c3ccccc3OCC)CC2)o1	26.09% and 30.01%	49.97%
CC(=O)Nc1ccc2nc(-c3nccn3CCCN(C)C)ccc2c1	3.607%	-12.89%
C[C@H](NC(=O)N1CCN(c2ccc(Cl)cc2)CC1)C(=O)N1CCSCC1	-7.398%	5.982%
[H][C@@]12CS(=O)(=O)C[C@]1([H])N(Cc1ncc[nH]1)CCN2Cc1cccnc1	-18.66%	-24.2%
CCCc1nc(N2CCCCCC2)c2c(n1)c(C)nn2CC	9.137%	24.41% and 68.07%

Measurements from “University of Dundee, Small-Polar-MMV Screening Library” (2021), ChEMBL document CHEMBL3988442.